The values below come from patent US20080274117A1.

These are yes or no findings as the source states them, for the method shown. Binding seen in cells or lysates may run through a third protein. Some entries that bind do so weakly or less than the wild type. Sequences can lack the tags named with a protein.

Experiment [1] concerns the target T1, human TSSK2 (myc tagged), in vitro translated (human) (UniProt Q96PF2).
T1 sequence: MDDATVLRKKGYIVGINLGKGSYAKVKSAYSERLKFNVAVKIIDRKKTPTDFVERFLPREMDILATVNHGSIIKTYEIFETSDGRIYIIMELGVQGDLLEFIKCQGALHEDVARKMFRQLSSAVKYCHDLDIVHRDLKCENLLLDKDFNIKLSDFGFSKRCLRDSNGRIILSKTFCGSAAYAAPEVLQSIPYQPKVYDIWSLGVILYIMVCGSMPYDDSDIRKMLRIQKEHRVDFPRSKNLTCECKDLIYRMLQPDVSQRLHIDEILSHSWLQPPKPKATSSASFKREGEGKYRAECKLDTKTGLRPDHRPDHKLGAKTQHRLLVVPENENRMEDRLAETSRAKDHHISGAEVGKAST
The experiment can be described thus: in-vitro co-immunoprecipitation.

Experiment [2] deals with T1, human TSSK2 (myc tagged), in vitro translated (human). The experiment can be described thus: co-immunoprecipitation of in vitro co-translated tagged proteins, SDS-PAGE and blot.

B1: human TSKS (HA tagged), in vitro translated (protein, not shown: small tags and cut ends)
chain: MASVVVKTIWQSKEIHEAGDTPTGVESCSQLVPEAPRRVTSRAKGIPKKKKAVSFHGVEPQMSHQPMHWCLNLKRSSACTNVSLLNLAAMEPTDSTGTDSTVEDLSGQLTLAGPPASPTLPWDPDDADITEILSGVNSGLVRAKDSITSLKEKTNRVNQHVQSLQSECSVLSENLERRRQEAEELEGYCIQLKENCWKVTRSVEDAEIKTNVLKQNSALLEEKLRYLQQQLQDETPRRQEAELQEPEEKQEPEEKQEPEEKQKPEAGLSWNSLGPAATSQGCPGPPGSPDKPSRPHGLVPAGWGMGPRAGEGPYVSEQELQKLFTGIEELRREVSSLTARWHQEEGAVQEALRLLGGLGGRVDGFLGQWERAQREQAQTARDLQELRGRADELCTMVERSAVSVASLRSELEGLGPLKPILEEFGRQFQNSRRGPDLSMNLDRSHQGNCARCASQGSQLSTESLQQLLDRALTSLVDEVKQRGLTPACPSCQRLHKKILELERQALAKHVRAEALSSTLRLAQDEALRAKNLLLTDKMKPEEKMATLDHLHLKMCSLHDHLSNLPLEGSTGTMGGGSSAGTPPKQGGSAPEQ
As to B1, the binding result in experiment [1] and in experiment [2] was “binds” throughout.
